Our source for the melting temperature shift values is the supplement of paper PMC12595434, “Development of retinoid nuclear receptor pathway antagonists through targeting aldehyde dehydrogenase 1A3” (iScience, 2025).

Amino acid sequences for entries named in this document (tags omitted). A change or cut given only in a name is not applied to a line headed by its entry.
UniProt Q9H2K0, whole entry, looked up: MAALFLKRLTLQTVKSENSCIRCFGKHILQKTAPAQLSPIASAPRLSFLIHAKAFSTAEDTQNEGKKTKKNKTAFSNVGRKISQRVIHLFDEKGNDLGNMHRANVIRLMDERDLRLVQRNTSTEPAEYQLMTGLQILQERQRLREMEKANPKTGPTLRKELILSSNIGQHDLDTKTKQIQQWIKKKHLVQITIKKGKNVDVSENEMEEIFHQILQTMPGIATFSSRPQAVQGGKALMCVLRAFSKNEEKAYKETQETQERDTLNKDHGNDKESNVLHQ
UniProt Q9H6Y2: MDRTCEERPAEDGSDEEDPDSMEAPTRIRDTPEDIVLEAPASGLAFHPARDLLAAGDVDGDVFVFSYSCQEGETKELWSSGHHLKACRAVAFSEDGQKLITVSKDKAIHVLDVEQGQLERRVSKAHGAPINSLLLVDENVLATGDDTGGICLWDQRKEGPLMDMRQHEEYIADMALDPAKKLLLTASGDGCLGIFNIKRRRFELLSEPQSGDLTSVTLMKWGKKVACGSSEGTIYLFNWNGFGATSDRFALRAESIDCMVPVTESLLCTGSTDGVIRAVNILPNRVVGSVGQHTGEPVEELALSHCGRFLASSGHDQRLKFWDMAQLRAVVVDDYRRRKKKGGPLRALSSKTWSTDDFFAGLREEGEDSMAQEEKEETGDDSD
UniProt Q9C0E2: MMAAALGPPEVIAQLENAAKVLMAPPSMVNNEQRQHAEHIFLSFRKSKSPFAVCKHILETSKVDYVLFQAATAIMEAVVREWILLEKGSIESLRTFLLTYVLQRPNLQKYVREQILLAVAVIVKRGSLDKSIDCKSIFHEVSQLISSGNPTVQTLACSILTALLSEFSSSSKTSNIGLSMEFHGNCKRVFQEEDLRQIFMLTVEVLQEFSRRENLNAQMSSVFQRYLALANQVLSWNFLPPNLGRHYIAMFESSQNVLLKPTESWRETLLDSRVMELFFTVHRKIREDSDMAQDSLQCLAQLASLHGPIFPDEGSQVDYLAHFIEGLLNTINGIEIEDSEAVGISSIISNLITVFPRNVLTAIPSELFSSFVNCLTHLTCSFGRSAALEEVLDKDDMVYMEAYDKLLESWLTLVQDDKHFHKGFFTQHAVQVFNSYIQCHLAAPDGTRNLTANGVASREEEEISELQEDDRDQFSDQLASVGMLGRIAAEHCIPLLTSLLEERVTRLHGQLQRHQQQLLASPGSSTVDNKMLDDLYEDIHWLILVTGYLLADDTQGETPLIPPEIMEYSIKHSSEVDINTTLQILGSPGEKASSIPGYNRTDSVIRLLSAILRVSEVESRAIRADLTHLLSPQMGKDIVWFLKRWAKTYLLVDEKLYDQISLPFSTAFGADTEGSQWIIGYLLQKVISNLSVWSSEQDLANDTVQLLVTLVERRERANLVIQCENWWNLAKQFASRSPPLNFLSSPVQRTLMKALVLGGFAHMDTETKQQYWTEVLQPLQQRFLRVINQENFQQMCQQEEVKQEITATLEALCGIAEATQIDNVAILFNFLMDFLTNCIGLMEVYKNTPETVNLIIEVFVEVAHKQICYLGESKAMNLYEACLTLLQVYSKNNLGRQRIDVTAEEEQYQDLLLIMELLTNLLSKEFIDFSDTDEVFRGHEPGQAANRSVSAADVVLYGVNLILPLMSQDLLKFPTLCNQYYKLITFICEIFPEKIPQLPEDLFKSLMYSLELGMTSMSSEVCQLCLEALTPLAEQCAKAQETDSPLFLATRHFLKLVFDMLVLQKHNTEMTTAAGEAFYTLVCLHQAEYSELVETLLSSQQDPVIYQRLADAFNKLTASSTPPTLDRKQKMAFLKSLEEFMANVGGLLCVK
UniProt Q9GZT9: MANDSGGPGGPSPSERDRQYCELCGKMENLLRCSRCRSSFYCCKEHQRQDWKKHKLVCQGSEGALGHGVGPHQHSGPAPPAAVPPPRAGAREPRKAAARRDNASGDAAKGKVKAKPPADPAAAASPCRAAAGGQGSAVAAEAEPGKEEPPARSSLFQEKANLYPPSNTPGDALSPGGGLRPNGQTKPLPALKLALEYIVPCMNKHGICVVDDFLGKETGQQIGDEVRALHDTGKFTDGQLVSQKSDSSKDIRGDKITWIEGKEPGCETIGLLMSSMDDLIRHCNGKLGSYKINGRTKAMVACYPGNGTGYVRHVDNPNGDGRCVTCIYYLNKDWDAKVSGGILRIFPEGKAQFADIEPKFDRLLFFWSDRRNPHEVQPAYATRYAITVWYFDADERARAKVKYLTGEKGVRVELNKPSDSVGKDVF
UniProt Q9H0X9: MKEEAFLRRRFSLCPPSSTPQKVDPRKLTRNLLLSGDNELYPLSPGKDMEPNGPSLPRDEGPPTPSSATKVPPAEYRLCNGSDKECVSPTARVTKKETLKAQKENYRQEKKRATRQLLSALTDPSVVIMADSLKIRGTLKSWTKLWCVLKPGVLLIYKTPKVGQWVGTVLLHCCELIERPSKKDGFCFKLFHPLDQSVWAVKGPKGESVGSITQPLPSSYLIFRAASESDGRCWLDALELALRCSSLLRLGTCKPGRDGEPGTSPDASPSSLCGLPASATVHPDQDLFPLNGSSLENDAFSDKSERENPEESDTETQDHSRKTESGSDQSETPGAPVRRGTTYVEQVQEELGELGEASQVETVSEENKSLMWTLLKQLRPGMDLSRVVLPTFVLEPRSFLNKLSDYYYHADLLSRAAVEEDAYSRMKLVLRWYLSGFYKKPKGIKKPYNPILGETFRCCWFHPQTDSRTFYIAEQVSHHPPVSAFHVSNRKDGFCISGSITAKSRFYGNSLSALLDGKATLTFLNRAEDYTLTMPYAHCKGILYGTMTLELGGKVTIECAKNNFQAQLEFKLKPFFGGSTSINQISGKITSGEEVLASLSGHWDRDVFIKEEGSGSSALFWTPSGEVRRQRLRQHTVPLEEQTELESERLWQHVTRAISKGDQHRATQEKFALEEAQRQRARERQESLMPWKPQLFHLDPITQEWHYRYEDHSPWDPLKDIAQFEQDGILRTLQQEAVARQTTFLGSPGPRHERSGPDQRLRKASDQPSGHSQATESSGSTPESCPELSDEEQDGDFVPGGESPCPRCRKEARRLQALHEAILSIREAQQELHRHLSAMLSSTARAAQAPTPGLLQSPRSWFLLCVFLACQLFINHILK
UniProt Q9H6R4: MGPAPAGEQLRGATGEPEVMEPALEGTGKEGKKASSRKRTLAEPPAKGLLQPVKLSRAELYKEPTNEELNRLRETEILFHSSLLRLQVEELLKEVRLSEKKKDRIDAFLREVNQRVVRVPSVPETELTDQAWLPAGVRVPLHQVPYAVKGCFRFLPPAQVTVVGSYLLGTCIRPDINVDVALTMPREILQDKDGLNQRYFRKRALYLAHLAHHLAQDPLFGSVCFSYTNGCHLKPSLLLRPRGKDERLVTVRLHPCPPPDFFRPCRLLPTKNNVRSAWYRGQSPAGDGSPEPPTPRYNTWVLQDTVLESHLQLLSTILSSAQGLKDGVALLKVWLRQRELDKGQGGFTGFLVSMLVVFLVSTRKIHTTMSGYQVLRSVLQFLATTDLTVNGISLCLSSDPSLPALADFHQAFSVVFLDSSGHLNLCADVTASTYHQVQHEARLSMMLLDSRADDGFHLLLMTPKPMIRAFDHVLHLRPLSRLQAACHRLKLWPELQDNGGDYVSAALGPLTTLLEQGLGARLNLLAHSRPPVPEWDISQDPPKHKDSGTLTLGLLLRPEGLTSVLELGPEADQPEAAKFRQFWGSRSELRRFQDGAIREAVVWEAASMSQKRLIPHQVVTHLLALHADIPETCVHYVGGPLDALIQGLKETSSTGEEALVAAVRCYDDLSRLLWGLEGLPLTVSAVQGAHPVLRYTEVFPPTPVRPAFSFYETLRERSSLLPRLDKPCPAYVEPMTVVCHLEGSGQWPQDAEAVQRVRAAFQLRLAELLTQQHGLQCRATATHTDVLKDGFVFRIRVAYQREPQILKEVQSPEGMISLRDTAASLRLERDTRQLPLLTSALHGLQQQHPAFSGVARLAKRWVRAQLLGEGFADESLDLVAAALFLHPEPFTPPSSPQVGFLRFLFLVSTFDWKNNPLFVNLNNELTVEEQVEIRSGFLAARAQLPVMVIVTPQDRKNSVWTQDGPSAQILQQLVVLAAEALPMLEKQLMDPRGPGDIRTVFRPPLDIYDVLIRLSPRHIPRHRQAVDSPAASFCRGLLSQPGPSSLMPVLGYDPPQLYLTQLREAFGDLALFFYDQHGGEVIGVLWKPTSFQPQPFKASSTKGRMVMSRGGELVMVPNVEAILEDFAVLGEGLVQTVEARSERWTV
UniProt Q9H3N1: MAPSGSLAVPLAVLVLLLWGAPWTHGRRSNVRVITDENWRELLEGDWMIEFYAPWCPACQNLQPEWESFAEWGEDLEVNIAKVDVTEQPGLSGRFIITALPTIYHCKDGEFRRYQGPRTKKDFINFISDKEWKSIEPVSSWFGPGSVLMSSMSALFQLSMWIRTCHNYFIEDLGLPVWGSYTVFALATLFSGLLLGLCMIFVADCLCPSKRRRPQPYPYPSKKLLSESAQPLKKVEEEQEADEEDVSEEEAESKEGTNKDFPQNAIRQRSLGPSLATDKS
UniProt Q9H5X1: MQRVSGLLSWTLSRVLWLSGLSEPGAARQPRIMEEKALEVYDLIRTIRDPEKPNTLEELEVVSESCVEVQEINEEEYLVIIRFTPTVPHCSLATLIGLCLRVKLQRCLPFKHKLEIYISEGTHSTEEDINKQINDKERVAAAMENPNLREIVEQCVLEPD
UniProt Q9C0D5: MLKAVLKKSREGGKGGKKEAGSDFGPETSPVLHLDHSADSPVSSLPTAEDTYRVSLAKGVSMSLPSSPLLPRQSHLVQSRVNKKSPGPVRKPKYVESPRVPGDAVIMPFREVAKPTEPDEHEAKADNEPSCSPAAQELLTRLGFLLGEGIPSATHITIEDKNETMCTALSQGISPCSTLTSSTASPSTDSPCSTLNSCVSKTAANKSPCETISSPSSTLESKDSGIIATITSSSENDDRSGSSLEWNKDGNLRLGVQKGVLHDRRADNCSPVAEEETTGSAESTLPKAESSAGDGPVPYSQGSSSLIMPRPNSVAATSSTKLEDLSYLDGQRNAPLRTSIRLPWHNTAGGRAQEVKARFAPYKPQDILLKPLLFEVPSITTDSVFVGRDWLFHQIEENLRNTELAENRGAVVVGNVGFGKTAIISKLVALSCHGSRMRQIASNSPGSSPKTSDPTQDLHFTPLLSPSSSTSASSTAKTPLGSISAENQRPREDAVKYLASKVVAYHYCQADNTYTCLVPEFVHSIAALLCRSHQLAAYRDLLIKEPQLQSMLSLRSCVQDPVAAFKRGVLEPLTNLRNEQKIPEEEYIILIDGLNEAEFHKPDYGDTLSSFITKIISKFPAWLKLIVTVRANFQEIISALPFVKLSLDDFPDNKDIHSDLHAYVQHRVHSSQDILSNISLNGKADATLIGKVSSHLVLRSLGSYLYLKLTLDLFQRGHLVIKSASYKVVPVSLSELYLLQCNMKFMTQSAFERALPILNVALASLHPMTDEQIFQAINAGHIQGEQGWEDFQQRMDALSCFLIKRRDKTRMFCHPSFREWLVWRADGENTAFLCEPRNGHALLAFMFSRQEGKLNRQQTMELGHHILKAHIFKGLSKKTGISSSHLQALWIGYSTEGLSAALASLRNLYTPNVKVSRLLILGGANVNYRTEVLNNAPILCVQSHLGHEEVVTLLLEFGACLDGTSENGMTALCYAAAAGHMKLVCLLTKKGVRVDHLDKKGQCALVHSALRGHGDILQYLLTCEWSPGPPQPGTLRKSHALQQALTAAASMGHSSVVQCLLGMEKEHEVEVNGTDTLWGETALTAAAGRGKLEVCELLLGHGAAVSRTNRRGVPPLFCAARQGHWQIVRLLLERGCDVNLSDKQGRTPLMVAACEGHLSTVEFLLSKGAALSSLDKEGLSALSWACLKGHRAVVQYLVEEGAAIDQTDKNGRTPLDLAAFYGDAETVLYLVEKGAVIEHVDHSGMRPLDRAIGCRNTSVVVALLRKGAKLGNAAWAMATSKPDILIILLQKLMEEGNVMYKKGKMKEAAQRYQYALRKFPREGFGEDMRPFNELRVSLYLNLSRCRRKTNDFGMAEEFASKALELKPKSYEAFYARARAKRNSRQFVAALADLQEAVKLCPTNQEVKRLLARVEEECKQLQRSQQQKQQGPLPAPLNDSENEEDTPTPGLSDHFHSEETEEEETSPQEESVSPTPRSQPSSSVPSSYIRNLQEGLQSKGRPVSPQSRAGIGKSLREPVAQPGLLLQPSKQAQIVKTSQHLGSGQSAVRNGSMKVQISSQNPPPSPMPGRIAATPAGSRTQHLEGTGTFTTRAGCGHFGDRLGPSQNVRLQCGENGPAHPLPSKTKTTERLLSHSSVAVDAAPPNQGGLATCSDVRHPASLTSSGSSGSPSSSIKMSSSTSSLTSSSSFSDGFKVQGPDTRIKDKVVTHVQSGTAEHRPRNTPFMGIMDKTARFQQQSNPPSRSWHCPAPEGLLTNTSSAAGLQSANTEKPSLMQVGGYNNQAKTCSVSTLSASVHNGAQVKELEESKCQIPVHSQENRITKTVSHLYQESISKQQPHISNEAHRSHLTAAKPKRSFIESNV

The other results are listed elsewhere or left out. This is a noisy data set.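 Tm was set to 64 °C where no melting was found, and many curves are irregular.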

Compound in the first test: CCc1cnccc1C(=O)Nc1cc2c(cc1F)NC(=O)CC2
Kind of test: melting temperature shift (DMSO Tm minus MBE1-treated Tm) in cellular thermal proteome profiling; higher = less thermal stabilization by MBE1 (negative = stabilized by MBE1). The conditions noted are these: A375; MBE1 concentration: 100 nM.
As to NT5C3A (UniProt Q9H0P0), the melting temperature shift was determined as 1.05 °C.

Take ASCC2 (UniProt Q9H1I8): the melting temperature shift is -0.55 °C.

Consider SMYD3 (UniProt Q9H7B4), for which the melting temperature shift was -0.249 °C.

On to MTIF3 (UniProt Q9H2K0), for which the melting temperature shift was -0.208 °C.

As for TBL1XR1 (UniProt Q9BZK7), the melting temperature shift was -1.78 °C.

On to PIGU (UniProt Q9H490), for which the melting temperature shift was -0.0488 °C.

Regarding EHD4 (UniProt Q9H223), the melting temperature shift came to 0.299 °C.

On to FAM188A (UniProt Q9H8M7), for which the melting temperature shift was -0.114 °C.

Consider OSGEPL1 (UniProt Q9H4B0), for which the melting temperature shift came out at 1.81 °C.

POMK (UniProt Q9H5K3): the melting temperature shift is -3 °C.

As to WDR55 (UniProt Q9H6Y2), the melting temperature shift was -0.624 °C.

Regarding UniProt Q9BYI3, the melting temperature shift was -1.78 °C.

With UniProt Q9H0R1, the melting temperature shift came to 1.11 °C.

As for HAUS4 (UniProt Q9H6D7), the melting temperature shift is -0.118 °C.

Consider TRABD (UniProt Q9H4I3), for which the melting temperature shift is -0.801 °C.

Consider UniProt Q9H3Z4, for which the melting temperature shift is -0.741 °C.

Turning to XPO4 (UniProt Q9C0E2), the melting temperature shift was -0.621 °C.

For the target PCIF1 (UniProt Q9H4Z3), the melting temperature shift is 0.0329 °C.

As to CXORF56 (UniProt Q9H5V9), the melting temperature shift turned out to be 0.543 °C.

For EGLN1 (UniProt Q9GZT9), the melting temperature shift came out at 0.995 °C.

As for ACAD9 (UniProt Q9H845), the melting temperature shift was -1.14 °C.

For the target OSBPL5 (UniProt Q9H0X9), the melting temperature shift was -0.476 °C.

Take UniProt Q9BZD3: the melting temperature shift is -0.44 °C.

Take NOL6 (UniProt Q9H6R4): the melting temperature shift was -0.866 °C.

Turning to MRPS26 (UniProt Q9BYN8), the melting temperature shift was -0.243 °C.

Take C1ORF198 (UniProt Q9H425): the melting temperature shift was -2.57 °C.

In the case of TMX1 (UniProt Q9H3N1), the melting temperature shift was -1.75 °C.

Take UniProt Q9H6S1: the melting temperature shift was found to be 0.259 °C.

For the target RMND5A (UniProt Q9H871), the melting temperature shift was found to be 1.01 °C.

Turning to NARFL (UniProt Q9H6Q4), the melting temperature shift came to 0.449 °C.

In the case of FAM96A (UniProt Q9H5X1), the melting temperature shift was -2.45 °C.

Turning to C20ORF27 (UniProt Q9GZN8), the melting temperature shift was -0.664 °C.

In the case of POLR3F (UniProt Q9H1D9), the melting temperature shift is -0.724 °C.

Turning to LHPP (UniProt Q9H008), the melting temperature shift is -2.9 °C.

On to TANC1 (UniProt Q9C0D5), for which the melting temperature shift is -0.0847 °C.

In the case of UniProt Q9C0C4, the melting temperature shift is -1.32 °C.

For WDR61 (UniProt Q9GZS3), the melting temperature shift was determined as 1.8 °C.

The test is the same for the next values; noted with them: A375; MBE1 concentration: 1 uM.
Take NT5C3A (UniProt Q9H0P0): the melting temperature shift stood at 1.12 °C.

As to ASCC2 (UniProt Q9H1I8), the melting temperature shift is -0.212 °C.

Consider SMYD3 (UniProt Q9H7B4), for which the melting temperature shift came out at 0.818 °C.

Take MTIF3 (UniProt Q9H2K0): the melting temperature shift was -0.0335 °C.

As for TBL1XR1 (UniProt Q9BZK7), the melting temperature shift was -2.67 °C.

Turning to PIGU (UniProt Q9H490), the melting temperature shift was -0.116 °C.

In the case of EHD4 (UniProt Q9H223), the melting temperature shift worked out at 0.0916 °C.

FAM188A (UniProt Q9H8M7): the melting temperature shift is 0.469 °C.

Turning to OSGEPL1 (UniProt Q9H4B0), the melting temperature shift is -0.0183 °C.

Consider POMK (UniProt Q9H5K3), for which the melting temperature shift was 0.208 °C.

As to WDR55 (UniProt Q9H6Y2), the melting temperature shift amounted to 0.487 °C.

On to UniProt Q9BYI3, for which the melting temperature shift is -1.29 °C.

With UniProt Q9H0R1, the melting temperature shift was -1.84 °C.

For the target HAUS4 (UniProt Q9H6D7), the melting temperature shift is -1.44 °C.

Consider TRABD (UniProt Q9H4I3), for which the melting temperature shift was 0.0183 °C.

In the case of UniProt Q9H3Z4, the melting temperature shift is -2.96 °C.

Turning to XPO4 (UniProt Q9C0E2), the melting temperature shift amounted to 0.0794 °C.

Regarding PCIF1 (UniProt Q9H4Z3), the melting temperature shift is -0.103 °C.

In the case of CXORF56 (UniProt Q9H5V9), the melting temperature shift is -0.0916 °C.

Regarding EGLN1 (UniProt Q9GZT9), the melting temperature shift amounted to 1.79 °C.

As to ACAD9 (UniProt Q9H845), the melting temperature shift worked out at 0.623 °C.

Turning to OSBPL5 (UniProt Q9H0X9), the melting temperature shift is 4.1 °C.

Turning to UniProt Q9BZD3, the melting temperature shift was -1.18 °C.

On to NOL6 (UniProt Q9H6R4), for which the melting temperature shift is -0.56 °C.

On to MRPS26 (UniProt Q9BYN8), for which the melting temperature shift was 0.179 °C.

With C1ORF198 (UniProt Q9H425), the melting temperature shift is -1.89 °C.

For TMX1 (UniProt Q9H3N1), the melting temperature shift is -1.55 °C.

In the case of UniProt Q9H6S1, the melting temperature shift was -0.0565 °C.

As for RMND5A (UniProt Q9H871), the melting temperature shift is 0.434 °C.

NARFL (UniProt Q9H6Q4): the melting temperature shift was 0.932 °C.

Regarding FAM96A (UniProt Q9H5X1), the melting temperature shift is -1.17 °C.

Regarding C20ORF27 (UniProt Q9GZN8), the melting temperature shift is -0.677 °C.

Take POLR3F (UniProt Q9H1D9): the melting temperature shift is -1.13 °C.

Regarding LHPP (UniProt Q9H008), the melting temperature shift came to 0.354 °C.

For TANC1 (UniProt Q9C0D5), the melting temperature shift stood at 0.0376 °C.

Take UniProt Q9C0C4: the melting temperature shift was 0.556 °C.

Consider WDR61 (UniProt Q9GZS3), for which the melting temperature shift worked out at 1.96 °C.
